Hit rate of the full screen: of about 320,000 compounds, about 740 (0.23%) were called active. Inconclusive means that the source gave no clear call. Such entries were picked first, then a sample of the others. The call rests on the fitted dose curve; in most records, active means well fitted activation curve with a large enough effect; inconclusive means small, poorly fitted or top-dose-only effect; inactive means no such curve, though single readings can be large or run the other way. Where the call is inconclusive, the potency comes from a doubtful curve fit.
Test: qHTS Assay for Small Molecule Inhibitors of Mitochondrial Division or Activators of Mitochondrial Fusion; further: nearly all actives have a fitted effect of over 45% in size; on growth rescue (activation): % of control where 0% means no effect
Conditions: S. cerevisiae fusion-defective mutant growth rescue, CellTiterGlo 48 h; growth rescue (activation): at 46.1 µM (top of the series) unless noted
Outline: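 S. cerevisiae fusion-defective temperature-sensitive mutants (e.g. fzo1-1, mgm1-5) grown 48 h at 37C in YPEG (ethanol/glycerol non-fermentable) medium with 23 nl compound per well; growth rescue read as CellTiterGlo luminescence.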
Potency means the concentration at half of the fitted maximal effect.

SMILES	Potency	growth rescue (activation)
CC(=O)Nc1ccc(Nc2cc(C)nc3c(-c4ccc(Cl)cc4)cnn23)cc1	inconclusive: 3.55 µM [activator, partial curve]	
C=C[C@@H]1c2c(F)cccc2N(S(=O)(=O)c2ccc(C)cc2)[C@H](c2ccc(OC(C)=O)cc2)C1(C#N)C#N	inconclusive: 14.1 µM [activator, single point]	
Cc1nc2sc3c(NCc4ccco4)ncnc3c2c2c1COC(C)(C)C2	inconclusive: 11.2 µM [activator, partial curve]	
O=C(NCc1ccc(F)cc1)c1ccccc1OCc1ccccc1	active: 17.8 µM	
C[C@@]12C(=O)N(Cc3ccccc3)CC(=O)N1[C@H]1c3cc(Cl)ccc3OC[C@@H]1[C@@H]2c1ccccc1	inconclusive: 20 µM [activator, single point]	
Cc1cccn2cc(CSc3nnc(Nc4ccc(C(C)C)cc4)s3)nc12	inconclusive: 28.2 µM [activator, single point]	
O=C(O)c1cc(-c2ccc3ccccc3c2)nc2ccc(F)cc12	inconclusive: 3.16 µM [activator, partial curve]	
O=C(NCCCn1ccnc1)/C(=C/c1ccccc1)NC(=O)c1ccccc1	inconclusive: 22.4 µM [activator, partial curve, poor fit]	
Cc1ccc(-n2c(=O)c3cc4c(=O)n(-c5ccc(C)c(C)c5)c(=O)c4c(C(=O)c4ccc(C(=O)O)cc4)c3c2=O)cc1C		inactive: 2.45%
CCC(c1nnnn1Cc1ccccc1)N(Cc1ccco1)Cc1cc2cc(OC)ccc2[nH]c1=O (centres undefined)		inactive: 2.43%
CCn1c(C)nc2c(=O)oc3ccccc3c21	inconclusive: 3.55 µM [activator, single point]	
O=C(COc1ccc(Cl)cc1Br)NC(=O)NC1CCCC1		inactive: 23.1%
CCOC(=O)CSc1nc2ccccc2c(=O)n1C1CCCC1	inconclusive: 11.2 µM [activator, partial curve]	
Fc1ccc(CN2CCCN(Cc3nc(-c4ccc5c(c4)OCO5)no3)CC2)cc1	inconclusive: 10 µM [activator, partial curve]	
CCCCN(CC)CCNC(=O)Cn1cc2c(n1)-c1c(oc(C(=O)N3CCCC3)c1C)CC2		inactive: -7.87%
Cc1cccc(-n2c(C)cc(C(=O)NC3CCCCC3)c2C)c1	inconclusive: 12.6 µM [activator, partial curve]	
CCOC(=O)c1ccccc1NC(=O)C1CCN(c2ncnc3sc(C)c(C)c23)CC1	inconclusive: 22.4 µM [activator, single point]	
COc1ccc(CNC(=O)C(=O)NCC2OCCN2C(=O)c2ccc(OC)cc2)cc1 (centres undefined)	inconclusive: 3.55 µM [activator, single point]	
Cc1ccc(N/N=C(\C#N)C(N)=S)cc1C		inactive: 0.927%
Cc1ccc(S(=O)(=O)NCC(=O)OCC(=O)N2CCN(C(=O)c3ccco3)CC2)cc1C		inactive: 4%
O=C1C=C(c2ccc3ncccc3c2)C[C@@H](c2ccc(F)cc2)C1	inconclusive: 25.1 µM [activator, single point]	
CCc1cc(-c2n[nH]c(=S)n2-c2cccc(C)c2)cs1	inconclusive: 17.8 µM [activator, single point]	
NC(=O)c1nsc(C(=O)N(CC(=O)NC2CCCCC2)c2cccc(F)c2)c1N		inactive: -0.477%

4 of the compounds above, as labelled records.
CC(=O)Nc1ccc(Nc2cc(C)nc3c(-c4ccc(Cl)cc4)cnn23)cc1
  Potency: inconclusive: 3.55 µM [activator, partial curve]
O=C(COc1ccc(Cl)cc1Br)NC(=O)NC1CCCC1
  growth rescue (activation): inactive: 23.1%
Cc1cccc(-n2c(C)cc(C(=O)NC3CCCCC3)c2C)c1
  Potency: inconclusive: 12.6 µM [activator, partial curve]
CCOC(=O)c1ccccc1NC(=O)C1CCN(c2ncnc3sc(C)c(C)c23)CC1
  Potency: inconclusive: 22.4 µM [activator, single point]

Given bar-delimited: 2 of the compounds above
SMILES | Potency | growth rescue (activation)
CCc1cc(-c2n[nH]c(=S)n2-c2cccc(C)c2)cs1 | inconclusive: 17.8 µM [activator, single point] | 
NC(=O)c1nsc(C(=O)N(CC(=O)NC2CCCCC2)c2cccc(F)c2)c1N |  | inactive: -0.477%

The list goes on:

SMILES	Potency	growth rescue (activation)
CC(C)(C)NC(=O)CSc1nnc(-c2ccccc2)c(-c2ccccc2)n1	inconclusive: 12.6 µM [activator, partial curve]	
CCCCC(CC)CNC(=O)/C=C/c1ccc(F)cc1 (centres undefined)	inconclusive: 22.4 µM [activator, single point]	
O=C(/C=C/c1ccco1)NCC1(c2ccccc2)CCCC1	inconclusive: 35.5 µM [activator, single point]	
Cc1cc(C)cc(NS(=O)(=O)c2ccc(Oc3ncc(C(F)(F)F)cc3Cl)cc2)c1	inconclusive: 35.5 µM [activator, single point]	
COc1cccc(/C=C2\SC(=S)N(CCC(=O)NC3C=CS(=O)(=O)C3)C2=O)c1 (centres undefined)		inactive: -13.4%
COc1ccc(C(c2nnnn2C2CCCCC2)N2CCN(c3ccccc3F)CC2)cc1 (centres undefined)	inconclusive: 3.98 µM [activator, full curve, poor fit]	
CCOc1ccc(Cl)cc1C1=CC(=O)C[C@H](c2ccc(OC)cc2)C1	active: 35.5 µM	
CS/C(=N\S(=O)(=O)c1cccs1)Nc1ccc(Br)cc1F	inconclusive: 15.8 µM [activator, partial curve]	
COc1ccccc1/C=C1\CCCC2=C1Nc1nnnn1C2c1ccccc1OC (centres undefined)	inconclusive: 20 µM [activator, single point]	
Cc1nc(NS(=O)(=O)c2ccccc2)sc1NC(=O)Nc1ccc(Cl)cc1		inactive: 2.51%
Cc1c(-c2cccc(Cl)c2)nc2ccccc2c1C(=O)OCC(=O)Nc1ccc2c(c1)OCO2	inconclusive: 11.2 µM [activator, partial curve]	
CC(=O)Nc1nc2ccccc2n1Cc1ccccc1Cl		inactive: 7.06%
CCS(=O)(=O)N1CCN(C(C)CCc2ccccc2)CC1 (centres undefined)		inactive: -2.53%
O=C(c1cccc(S(=O)(=O)N2CCCCC2)c1)N(CCc1ccccc1)Cc1ccccc1	inconclusive: 17.8 µM [activator, single point]	
COc1cc(/C=C2\SC(=S)N(CC(=O)O)C2=O)ccc1OC(=O)c1ccco1		inactive: -8.46%
COc1ccc(-n2c(C)cc(C(=O)COc3ccc(C)nc3[N+](=O)[O-])c2C)cc1	inconclusive: 31.6 µM [activator, single point]	
COc1cc(OC)cc(-n2nnnc2SCC(=O)N2CCCC2)c1		inactive: -2.62%
CCOc1ccc(N2C(=O)Cc3ccccc3C2=O)cc1	inconclusive: 6.31 µM [activator, single point]	
COc1ccc([N+](=O)[O-])cc1NCc1cccc([N+](=O)[O-])c1	inconclusive: 17.8 µM [activator, partial curve]	
COC(=O)C1CCN(CC(=O)Nc2ccc(C(=O)Nc3ccccc3OC)cc2)CC1		inactive: 0.111%
Cc1cccc(OC(=O)c2cncc(Br)c2)c1		inactive: -5.65%
O=C(Nc1nnc(C2CC2)s1)c1cc([N+](=O)[O-])ccc1N1CCCCC1	inconclusive: 17.8 µM [activator, single point]	
NC(=O)CSc1nc2ccc([N+](=O)[O-])cc2[nH]1	active: 14.1 µM	

SMILES	Potency	growth rescue (activation)
CC(=O)Nc1cccc(C(=O)NC2CCCc3c2cnn3-c2ccc(C(C)(C)C)cc2)c1 (centres undefined)	inconclusive: 3.55 µM [activator, partial curve]	
CCCc1cc(C(N)=O)c(NC(=O)c2ccoc2C)s1	inconclusive: 6.31 µM [activator, single point]	
CC(C)(C)NC(=O)C(=O)N/N=C/c1ccc(F)cc1	inconclusive: 5.01 µM [activator, single point]	
CCc1c(C)nc2cc(-c3cc(OC)cc(OC)c3)nn2c1N1CCCC1	inconclusive: 31.6 µM [activator, single point]	
O=C1OCCN1C(=O)[C@H]1[C@H](c2ccc(F)cc2)C(c2ccc(F)cc2)=NN1c1ccc(Br)cc1	inconclusive: 25.1 µM [activator, partial curve, poor fit]	
FC(F)(F)c1nc(=S)c2ccccc2[nH]1		inactive: -0.369%
Cc1cc(C)nc(N2CCC(C(=O)NCc3ccco3)CC2)n1		inactive: -7.07%
O=c1c2ccccc2nc(-c2ccoc2)n1CCc1ccccc1	inconclusive: 11.2 µM [activator, single point]	
O=C(O)c1[nH]c2ccccc2c1NS(=O)(=O)c1ccc(F)cc1	active: 35.5 µM	
COC(=O)c1c(NC(=O)c2ccc(C)o2)sc2c1CCCCC2	inconclusive: 17.8 µM [activator, partial curve]	
CCOC(=O)C1=C(C)N=C2SC(CC)C(=O)N2C1c1cccc(F)c1 (centres undefined)	inconclusive: 25.1 µM [activator, single point]	
CC(C)(C)c1ccc(C(=O)N2CCC(=O)N(C(COCc3ccccc3)Cc3ccccc3)CC2)cc1 (centres undefined)	inconclusive: 12.6 µM [activator, partial curve]	
C=CCn1c(N)c(C(=O)Nc2ccccc2)c2nc3ccccc3nc21	inconclusive: 14.1 µM [activator, single point]	
COc1cccc(NC(=O)CSc2nc3ccccc3c3nc4ccccc4n23)c1		inactive: -3.55%
O=[N+]([O-])c1ccc(Sc2ccccc2)nc1		inactive: 4.25%
N#CC1=C(N)OC2=C(CC/C2=C\c2ccccc2Cl)C1c1ccccc1Cl (centres undefined)	inconclusive: 12.6 µM [activator, partial curve]	
Cc1ccc(OCC(=O)NC(C)c2ccc(Cl)c(Cl)c2)c([N+](=O)[O-])n1 (centres undefined)	inconclusive: 17.8 µM [activator, partial curve]	
CCOc1ccc2nc(NC(=O)Nc3cccs3)sc2c1	inconclusive: 11.2 µM [activator, partial curve]	
O=C(O)c1cc2ccc3cccc4ccc(c1)c2c34	inconclusive: 20 µM [activator, partial curve]	
CN(C)c1ccc(C(=O)Nc2nc3c(s2)CCCC3)cc1	inconclusive: 35.5 µM [activator, single point]	
CCCCCNC(=O)c1cccc(S(=O)(=O)N2CC3(C)CC2CC(C)(C)C3)c1 (centres undefined)	inconclusive: 17.8 µM [activator, single point]	
COc1cccc(NC(=O)CN(C)C(=O)c2cn(-c3ccccc3)nc2-c2cccs2)c1	inconclusive: 17.8 µM [activator, single point]	
Nc1nc(CSc2nnnn2-c2ccccc2)nc(N2CCCc3ccccc32)n1	inconclusive: 12.6 µM [activator, partial curve]	

Reference: PubChem BioAssay AID485298 (National Center for Advancing Translational Sciences (NCATS), 2010)
